Results are given in words; binding and its absence hold for the method and conditions named. For some assays here: Binding seen in cells or lysates may run through a third protein. Some entries that bind do so weakly or less than the wild type.
What was measured:
[1] = biological target: 2xStrep-TRIP12 (human) (UniProt Q14669); assay: pull-down; 2xStrep-TRIP12 immobilized on strep resin, incubated with one recombinant protein at 500 nM; 20 mM HEPES pH 7.5, 150 mM NaCl, 0.2% Nonidet P-40; 4°C, 30 minutes, five washes; western blotting; both purified
[2] = biological target: 2xStrep-CUL3 (in C2C12 myoblasts) (human) (UniProt Q13618); assay: co-IP; 2xStrep-CUL3 stably expressed in C2C12 myoblasts, purified on Strep-Tactin XT resin from lysate (4°C, 1 h); with or without MLN4924; with or without sodium arsenite; western blotting

By UniProt entry, the sequences of proteins in these tests, tags left out. Where a name states a change or a piece, a line headed by the entry shows the natural chain unless it says otherwise. Chains listed by the source or under a name are the forms on record and can include a tag or linker.
2xStrep-TRIP12 (Q14669, form named): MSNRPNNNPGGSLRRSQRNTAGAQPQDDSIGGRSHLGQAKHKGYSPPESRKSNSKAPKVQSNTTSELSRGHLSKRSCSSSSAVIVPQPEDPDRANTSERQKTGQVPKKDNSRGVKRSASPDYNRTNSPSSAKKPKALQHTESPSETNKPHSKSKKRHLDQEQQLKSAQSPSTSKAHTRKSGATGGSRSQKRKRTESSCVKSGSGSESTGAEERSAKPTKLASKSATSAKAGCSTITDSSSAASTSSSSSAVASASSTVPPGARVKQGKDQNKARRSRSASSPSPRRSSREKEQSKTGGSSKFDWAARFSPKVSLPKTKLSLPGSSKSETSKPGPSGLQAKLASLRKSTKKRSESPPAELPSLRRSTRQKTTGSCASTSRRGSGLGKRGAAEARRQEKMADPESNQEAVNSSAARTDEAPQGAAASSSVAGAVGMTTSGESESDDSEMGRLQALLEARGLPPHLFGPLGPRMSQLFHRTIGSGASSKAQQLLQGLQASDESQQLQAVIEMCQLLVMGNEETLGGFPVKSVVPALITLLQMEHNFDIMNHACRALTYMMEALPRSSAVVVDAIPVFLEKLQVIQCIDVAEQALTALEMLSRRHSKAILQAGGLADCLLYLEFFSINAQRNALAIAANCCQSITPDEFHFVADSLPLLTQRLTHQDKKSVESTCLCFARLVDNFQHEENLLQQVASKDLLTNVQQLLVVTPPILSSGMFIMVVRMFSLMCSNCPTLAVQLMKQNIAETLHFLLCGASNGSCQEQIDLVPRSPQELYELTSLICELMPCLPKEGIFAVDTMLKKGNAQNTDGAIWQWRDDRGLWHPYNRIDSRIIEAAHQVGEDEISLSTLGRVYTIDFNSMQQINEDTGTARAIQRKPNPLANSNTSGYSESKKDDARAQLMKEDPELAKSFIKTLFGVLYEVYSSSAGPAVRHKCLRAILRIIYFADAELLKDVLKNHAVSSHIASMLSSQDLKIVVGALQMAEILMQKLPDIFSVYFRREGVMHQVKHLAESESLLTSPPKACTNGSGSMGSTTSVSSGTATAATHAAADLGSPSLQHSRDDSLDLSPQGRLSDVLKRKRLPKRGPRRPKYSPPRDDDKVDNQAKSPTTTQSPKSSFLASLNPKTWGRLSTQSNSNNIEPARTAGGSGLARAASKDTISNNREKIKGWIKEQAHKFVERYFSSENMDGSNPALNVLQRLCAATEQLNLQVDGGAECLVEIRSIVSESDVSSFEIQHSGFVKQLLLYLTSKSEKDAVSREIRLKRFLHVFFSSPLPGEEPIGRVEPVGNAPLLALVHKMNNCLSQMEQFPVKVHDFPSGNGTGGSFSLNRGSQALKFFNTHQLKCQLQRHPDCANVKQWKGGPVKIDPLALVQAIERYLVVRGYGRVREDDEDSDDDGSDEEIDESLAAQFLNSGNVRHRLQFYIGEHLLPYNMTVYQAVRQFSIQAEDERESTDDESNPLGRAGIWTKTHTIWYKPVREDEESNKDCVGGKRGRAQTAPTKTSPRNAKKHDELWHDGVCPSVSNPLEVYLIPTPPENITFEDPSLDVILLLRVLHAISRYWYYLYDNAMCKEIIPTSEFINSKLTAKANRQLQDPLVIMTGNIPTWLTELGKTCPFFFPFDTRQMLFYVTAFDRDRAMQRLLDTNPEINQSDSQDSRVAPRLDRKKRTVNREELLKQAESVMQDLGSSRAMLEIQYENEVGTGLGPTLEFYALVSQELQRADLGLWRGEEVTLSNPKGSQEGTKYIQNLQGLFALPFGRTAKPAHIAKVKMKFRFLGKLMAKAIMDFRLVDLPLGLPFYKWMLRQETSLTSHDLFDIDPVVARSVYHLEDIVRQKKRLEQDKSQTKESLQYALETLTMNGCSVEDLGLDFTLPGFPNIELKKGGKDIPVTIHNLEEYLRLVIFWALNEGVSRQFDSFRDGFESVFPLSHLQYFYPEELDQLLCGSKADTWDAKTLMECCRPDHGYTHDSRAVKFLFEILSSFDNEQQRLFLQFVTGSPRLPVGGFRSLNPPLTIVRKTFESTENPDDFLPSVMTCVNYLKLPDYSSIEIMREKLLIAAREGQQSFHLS
UniProt G5E870: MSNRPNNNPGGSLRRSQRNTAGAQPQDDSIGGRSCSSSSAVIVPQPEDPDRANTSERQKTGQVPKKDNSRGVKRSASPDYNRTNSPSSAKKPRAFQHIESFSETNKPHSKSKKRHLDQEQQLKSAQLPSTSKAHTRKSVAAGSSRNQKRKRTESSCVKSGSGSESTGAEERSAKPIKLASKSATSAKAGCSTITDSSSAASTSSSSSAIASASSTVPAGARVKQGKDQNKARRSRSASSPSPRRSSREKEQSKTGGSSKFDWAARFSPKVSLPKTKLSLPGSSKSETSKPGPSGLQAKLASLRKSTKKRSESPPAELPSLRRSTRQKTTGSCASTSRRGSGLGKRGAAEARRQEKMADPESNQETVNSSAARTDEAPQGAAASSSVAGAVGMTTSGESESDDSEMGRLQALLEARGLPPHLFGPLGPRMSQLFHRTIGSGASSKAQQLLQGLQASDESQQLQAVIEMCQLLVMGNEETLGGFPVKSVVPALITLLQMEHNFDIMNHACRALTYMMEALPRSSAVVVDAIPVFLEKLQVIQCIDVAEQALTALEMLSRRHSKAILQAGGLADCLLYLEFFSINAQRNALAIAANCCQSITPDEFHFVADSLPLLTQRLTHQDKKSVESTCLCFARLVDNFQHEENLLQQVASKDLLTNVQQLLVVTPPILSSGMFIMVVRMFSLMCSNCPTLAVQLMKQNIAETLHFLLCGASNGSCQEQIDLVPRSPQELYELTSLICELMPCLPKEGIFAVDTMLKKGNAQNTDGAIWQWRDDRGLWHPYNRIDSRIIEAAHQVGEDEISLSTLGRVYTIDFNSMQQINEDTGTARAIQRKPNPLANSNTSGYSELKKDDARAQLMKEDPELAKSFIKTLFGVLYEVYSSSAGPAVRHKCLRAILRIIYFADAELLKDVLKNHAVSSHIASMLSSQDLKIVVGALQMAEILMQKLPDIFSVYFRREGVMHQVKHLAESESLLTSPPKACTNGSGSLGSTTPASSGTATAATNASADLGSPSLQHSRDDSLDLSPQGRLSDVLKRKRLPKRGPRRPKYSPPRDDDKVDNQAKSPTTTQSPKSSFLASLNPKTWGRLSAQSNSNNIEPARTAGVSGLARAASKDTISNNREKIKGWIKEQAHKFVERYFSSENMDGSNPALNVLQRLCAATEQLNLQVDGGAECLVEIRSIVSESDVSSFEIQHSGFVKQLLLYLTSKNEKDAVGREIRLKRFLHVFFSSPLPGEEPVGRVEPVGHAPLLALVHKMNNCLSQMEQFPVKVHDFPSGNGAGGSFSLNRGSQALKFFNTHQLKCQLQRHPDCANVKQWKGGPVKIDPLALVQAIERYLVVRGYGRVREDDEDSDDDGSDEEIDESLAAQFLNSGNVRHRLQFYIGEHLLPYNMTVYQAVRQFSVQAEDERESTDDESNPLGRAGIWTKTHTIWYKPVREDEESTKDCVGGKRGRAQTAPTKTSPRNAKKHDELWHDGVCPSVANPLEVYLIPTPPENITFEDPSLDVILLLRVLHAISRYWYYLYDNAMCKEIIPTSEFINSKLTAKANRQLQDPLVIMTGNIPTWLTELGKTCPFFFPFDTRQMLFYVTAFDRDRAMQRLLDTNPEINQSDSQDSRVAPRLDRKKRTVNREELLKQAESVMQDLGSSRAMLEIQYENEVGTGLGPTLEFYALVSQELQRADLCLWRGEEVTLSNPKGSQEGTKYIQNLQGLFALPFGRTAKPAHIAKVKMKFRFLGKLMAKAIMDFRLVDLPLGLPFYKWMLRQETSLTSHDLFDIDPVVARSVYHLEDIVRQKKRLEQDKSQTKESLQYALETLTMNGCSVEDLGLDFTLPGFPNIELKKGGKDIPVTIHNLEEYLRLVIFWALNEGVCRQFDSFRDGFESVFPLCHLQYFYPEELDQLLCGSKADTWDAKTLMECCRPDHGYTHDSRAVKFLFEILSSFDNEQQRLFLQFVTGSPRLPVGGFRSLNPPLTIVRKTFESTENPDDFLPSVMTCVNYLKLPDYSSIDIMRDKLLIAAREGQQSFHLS

binding [1] | binding [2] | Substance
binds |  | CUL3/RBX1 (from UniProt Q13618 1-768; P62877 1-108) (complex)
 | binds | TRIP12 (endogenous, C2C12 myoblasts) (from UniProt G5E870 1-2025) (enzyme)

Source: publication PMC12560144
